The source of these data is PMC11267380, “USP25 Elevates SHLD2‐Mediated DNA Double‐Strand Break Repair and Regulates Chemoresponse in Cancer” (Advanced Science, 2024).

Results are given in words; binding and its absence hold for the method and conditions named. Binding seen in cells or lysates may run through a third protein. Binding can be weak; no strength is given.

In the assay the target is MYC-SHLD2 full length. Briefly: co-IP; MYC-SHLD2 constructs transfected (HEK293T, RKO; control or USP25 knockdown cells); MYC immunoprecipitated (anti-MYC affinity gel), immunoblot; cells untreated or treated with IR (10 Gy), 5-Fu (20 uM) or cisplatin (20 uM). In general terms: In western blotting, separated proteins are transferred to a membrane and probed.

B1: SHLD3 (protein, UniProt Q6ZNX1 1-250)
chain: MTTEVILHYRPCESDPTQLPKIAEKAIQDFPTRPLSRFIPWFPYDGSKLPLRPKRSPPVISEEAAEDVKQYLTISEHDAKSHSYDCTVDLLEFQPSLKKQHLTWSHTLKEQTNSGNLGKQSEKGKQHKRRSWSISLPSNNCTKNVSPLSKKLQDSLKALNLHSLYRARWTIEHTICNSQTLEDIWTKLNQIIRHNELPSCNATIQRHLGQIWVFCDIMYCEYVGSLLKGRLALTGKINLFVHKYGVIFSM
B1: the binding entry is recorded as “binds”.
